This note sets out measurements from article PMC6242907, “Molecular basis of maintaining an oxidizing environment under anaerobiosis by soluble fumarate reductase” (Nature Communications, 2018).

Chains of the proteins cited; added tags and fusions are not shown. Residues count along the entry.
UniProt P21375, residues 32-501: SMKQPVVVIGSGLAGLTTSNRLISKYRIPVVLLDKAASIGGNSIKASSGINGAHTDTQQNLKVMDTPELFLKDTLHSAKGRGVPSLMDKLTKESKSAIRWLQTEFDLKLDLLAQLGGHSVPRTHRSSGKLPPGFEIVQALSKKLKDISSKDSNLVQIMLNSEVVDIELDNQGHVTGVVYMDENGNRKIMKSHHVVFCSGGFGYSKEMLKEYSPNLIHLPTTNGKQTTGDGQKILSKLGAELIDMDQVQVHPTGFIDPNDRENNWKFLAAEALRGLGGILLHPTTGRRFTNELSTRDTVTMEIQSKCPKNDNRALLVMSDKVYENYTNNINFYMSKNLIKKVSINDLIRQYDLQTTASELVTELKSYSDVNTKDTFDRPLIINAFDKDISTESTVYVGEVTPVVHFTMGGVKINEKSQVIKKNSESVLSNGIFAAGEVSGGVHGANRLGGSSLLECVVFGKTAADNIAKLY

These are yes or no findings as the source states them, for the method shown. For some assays here: In cells and extracts the contact can be indirect. Some results given as binding are weak or reduced against the parent protein; the word gives no strength. For some assays here: Tags and fused reporters may be left off the sequences shown.

The target of assay [1] is T1, Ero1 (56-424) fused to MBP (pCDFDuet) (yeast) (UniProt Q03103).
T1 sequence: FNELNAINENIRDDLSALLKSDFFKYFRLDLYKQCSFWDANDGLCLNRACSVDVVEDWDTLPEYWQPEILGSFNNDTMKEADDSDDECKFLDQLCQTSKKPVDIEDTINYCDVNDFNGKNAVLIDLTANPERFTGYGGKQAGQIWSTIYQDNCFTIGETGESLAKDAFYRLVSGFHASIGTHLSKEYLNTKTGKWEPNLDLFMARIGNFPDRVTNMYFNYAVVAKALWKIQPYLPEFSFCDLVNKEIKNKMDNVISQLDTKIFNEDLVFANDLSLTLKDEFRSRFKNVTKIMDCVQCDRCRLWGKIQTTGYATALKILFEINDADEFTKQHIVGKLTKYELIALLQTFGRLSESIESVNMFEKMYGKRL
The experiment in a line: pull-down; lysate of E. coli BL21(DE3) co-expressing MBP-Ero1 and His-tagged Osm1; sequential pull-down with Ni-NTA then amylose beads, HBS; immunoblot with anti-His and anti-MBP. (In general: A western blot detects proteins with antibodies after separation by electrophoresis.)

Assay [2] concerns the target Osm1 (residues 32-501), 6x His-tagged (S. cerevisiae) (UniProt P21375). The experiment in a line: SEC-MALS; Superdex 200 HR 10/30, 20 mM Tris-HCl pH 8.0, 150 mM NaCl; FAD- and substrate-bound Osm1; both purified. (SEC sorts molecules by how far they enter the pores of the column.)

With “Osm1 (residues 32-501), 6x His-tagged (from UniProt P21375 32-501) (enzyme)”, the figures for the binding result in assay [1] and in assay [2] were “binds weakly” and “no binding”, respectively.
